Measured values from PubChem BioAssay AID312 (DTP/NCI, 2004).
The list does not hold the whole screen: it is rich in T/C values a quarter to a half above the control, in often repeated tests (any T/C) and in doses without a T/C. Other doses and runs of a compound stand elsewhere. T/C gives the treated animals as a percentage of the vehicle group. Some entries give survivors of the animals treated and no T/C: the source files T/C as zero there, which appears to mark a toxic dose or a test without result, not a measured value. Some survivor counts are full or nearly so, which does not show that the dose was tolerated: survival well below the control is almost never listed, so the zero probably covers shortened survival too. Survivors were counted at the toxicity check, usually on the fifth day, unless a day is given; later deaths do not show. Schedules are NCI's codes, read here as Q, the interval in days (D) or hours (H), X, the number of doses.

System: BDF1 mice, C1498 leukemia ip, median survival T/C
Assay: NCI In Vivo Anticancer Drug Screen. Data for tumor model C1498 Myeloid Leukemia (intraperitoneal) in B6D2F1 (BDF1) mice
Details: T/C endpoint: median survival time, schedule: Q01DX010 (ip), vehicle: saline, higher T/C = longer survival
Experimental: The antitumor activity of compounds was measured in mice bearing transplantable tumors. Survival or tumor size were measured and the results are expressed as the measurement made in the treated group (T) divided by the measurement made in the vehicle treated control group (C). The tumor model used in this assay is C1498 Myeloid Leukemia (intraperitoneal) in B6D2F1 (BDF1) mice

## N#CCSc1ncnc2nc[nH]c12
dose: 120.0 mg/kg/injection
  survivor count: 4 of 6
dose: 240.0 mg/kg/injection
  survivor count: 3 of 6
